PMC8973879
Results are given in words; binding and its absence hold for the method and conditions named. Binding seen in cells or lysates may run through a third protein. Some entries that bind do so weakly or less than the wild type. For some of these results: Tags and fused reporters may be left off the sequences shown.

T1: STIL (SCL/TAL1-interrupting locus), endogenous (human (endogenous in CL1-5)) (UniProt Q15468)
T1 sequence: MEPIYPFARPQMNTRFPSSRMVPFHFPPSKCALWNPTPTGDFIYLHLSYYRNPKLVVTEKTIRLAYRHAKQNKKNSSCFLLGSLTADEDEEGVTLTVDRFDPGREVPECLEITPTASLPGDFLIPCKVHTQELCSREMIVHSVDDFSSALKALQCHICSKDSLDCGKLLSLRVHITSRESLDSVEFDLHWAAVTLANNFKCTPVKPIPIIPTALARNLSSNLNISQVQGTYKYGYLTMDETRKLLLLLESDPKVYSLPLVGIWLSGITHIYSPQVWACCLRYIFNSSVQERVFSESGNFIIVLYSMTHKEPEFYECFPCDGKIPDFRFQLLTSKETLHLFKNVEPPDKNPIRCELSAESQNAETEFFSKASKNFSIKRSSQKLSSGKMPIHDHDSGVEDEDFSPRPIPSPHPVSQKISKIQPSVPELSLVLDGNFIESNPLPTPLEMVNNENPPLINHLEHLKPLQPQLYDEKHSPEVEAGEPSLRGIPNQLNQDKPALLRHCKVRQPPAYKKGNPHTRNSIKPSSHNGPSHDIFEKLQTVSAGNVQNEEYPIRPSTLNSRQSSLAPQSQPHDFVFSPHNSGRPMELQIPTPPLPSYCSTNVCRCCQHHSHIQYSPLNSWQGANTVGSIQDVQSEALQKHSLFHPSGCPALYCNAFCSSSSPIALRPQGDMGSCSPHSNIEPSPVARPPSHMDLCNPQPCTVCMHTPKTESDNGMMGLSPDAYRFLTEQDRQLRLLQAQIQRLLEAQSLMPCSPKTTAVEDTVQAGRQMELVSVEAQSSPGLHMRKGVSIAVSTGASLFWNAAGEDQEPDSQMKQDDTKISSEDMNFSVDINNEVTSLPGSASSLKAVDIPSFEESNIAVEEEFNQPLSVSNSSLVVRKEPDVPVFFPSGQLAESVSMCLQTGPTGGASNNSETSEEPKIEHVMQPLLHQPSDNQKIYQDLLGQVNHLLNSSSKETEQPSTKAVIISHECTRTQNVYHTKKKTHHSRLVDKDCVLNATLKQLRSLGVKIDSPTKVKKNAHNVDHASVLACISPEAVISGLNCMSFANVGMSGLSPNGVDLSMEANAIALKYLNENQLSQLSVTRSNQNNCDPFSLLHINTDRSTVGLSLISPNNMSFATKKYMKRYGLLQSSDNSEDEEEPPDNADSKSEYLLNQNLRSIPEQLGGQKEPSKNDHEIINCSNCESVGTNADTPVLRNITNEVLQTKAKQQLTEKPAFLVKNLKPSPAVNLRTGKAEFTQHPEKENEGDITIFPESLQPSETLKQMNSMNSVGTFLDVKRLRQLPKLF

T2: HA-FOXM1 (UniProt Q08050)
T2 sequence: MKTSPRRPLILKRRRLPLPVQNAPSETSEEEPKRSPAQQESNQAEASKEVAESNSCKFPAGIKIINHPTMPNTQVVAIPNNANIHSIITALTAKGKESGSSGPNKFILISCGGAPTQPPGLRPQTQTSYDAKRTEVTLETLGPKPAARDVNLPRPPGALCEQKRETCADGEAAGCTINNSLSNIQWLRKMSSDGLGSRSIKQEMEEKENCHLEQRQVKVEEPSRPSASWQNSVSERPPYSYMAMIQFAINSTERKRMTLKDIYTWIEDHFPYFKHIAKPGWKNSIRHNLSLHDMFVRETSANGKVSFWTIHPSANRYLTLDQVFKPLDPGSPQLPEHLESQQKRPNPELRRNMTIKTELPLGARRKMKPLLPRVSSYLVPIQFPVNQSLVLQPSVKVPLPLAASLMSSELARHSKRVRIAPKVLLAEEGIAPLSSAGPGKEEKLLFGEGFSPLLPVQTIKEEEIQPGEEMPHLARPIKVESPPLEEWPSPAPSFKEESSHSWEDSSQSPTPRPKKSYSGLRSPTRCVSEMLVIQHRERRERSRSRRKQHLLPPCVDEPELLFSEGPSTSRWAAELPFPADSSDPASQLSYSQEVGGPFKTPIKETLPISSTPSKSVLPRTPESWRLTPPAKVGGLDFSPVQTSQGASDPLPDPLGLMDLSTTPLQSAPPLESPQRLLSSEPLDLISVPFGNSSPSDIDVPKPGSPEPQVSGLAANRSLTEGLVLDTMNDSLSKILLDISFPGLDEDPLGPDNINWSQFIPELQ


Assays:
[1] = target: T1, STIL (SCL/TAL1-interrupting locus), endogenous (human (endogenous in CL1-5)); assay: co-IP; endogenous proteins, CL1-5 cells lysed in RIPA buffer; immunoprecipitation with anti-STIL or anti-FOXM1 antibody (4 °C, 1 h), protein A/G agarose overnight at 4 °C; Western blotting
[2] = target: T1, STIL (SCL/TAL1-interrupting locus), endogenous (human (endogenous in CL1-5)); assay: co-IP; co-IP from cytoplasmic and nuclear fractions (Additional file 2: Fig. S6e); cells and antibodies not shown
HA-FOXM1 [3] = target: T2, HA-FOXM1; assay: co-IP; HEK293T cells transiently co-transfected with HA-FOXM1 and full-length or truncated GFP-STIL; immunoprecipitation with anti-HA antibody; Western blotting
HA-FOXM1 [4] = target: T2, HA-FOXM1; assay: co-IP; exogenous GFP-STIL and HA-FOXM1 expressed in HEK293T cells (Additional file 2: Fig. S6f); precipitating antibody not shown

Row | Binder | binding [1] | binding [2] | binding (HA-FOXM1 [3]) | binding (HA-FOXM1 [4])
1 | FOXM1 (Forkhead box protein M1), endogenous (protein, UniProt Q08050 1-763) MKTSPRRPLILKRRRLPLPVQNAPSETSEEEPKRSPAQQESNQAEASKEVAESNSCKFPAGIKIINHPTMPNTQVVAIPNNANIHSIITALTAKGKESGSSGPNKFILISCGGAPTQPPGLRPQTQTSYDAKRTEVTLETLGPKPAARDVNLPRPPGALCEQKRETCADGEAAGCTINNSLSNIQWLRKMSSDGLGSRSIKQEMEEKENCHLEQRQVKVEEPSRPSASWQNSVSERPPYSYMAMIQFAINSTERKRMTLKDIYTWIEDHFPYFKHIAKPGWKNSIRHNLSLHDMFVRETSANGKVSFWTIHPSANRYLTLDQVFKPLDPGSPQLPEHLESQQKRPNPELRRNMTIKTELPLGARRKMKPLLPRVSSYLVPIQFPVNQSLVLQPSVKVPLPLAASLMSSELARHSKRVRIAPKVLLAEEGIAPLSSAGPGKEEKLLFGEGFSPLLPVQTIKEEEIQPGEEMPHLARPIKVESPPLEEWPSPAPSFKEESSHSWEDSSQSPTPRPKKSYSGLRSPTRCVSEMLVIQHRERRERSRSRRKQHLLPPCVDEPELLFSEGPSTSRWAAELPFPADSSDPASQLSYSQEVGGPFKTPIKETLPISSTPSKSVLPRTPESWRLTPPAKVGGLDFSPVQTSQGASDPLPDPLGLMDLSTTPLQSAPPLESPQRLLSSEPLDLISVPFGNSSPSDIDVPKPGSPEPQVSGLAANRSLTEGLVLDTMNDSLSKILLDISFPGLDEDPLGPDNINWSQFIPELQ | binds | binds |  | 
2 | GFP-STIL, full length (protein, UniProt Q15468-2 1-1288) MEPIYPFARPQMNTRFPSSRMVPFHFPPSKCALWNPTPTGDFIYLHLSYYRNPKLVVTEKTIRLAYRHAKQNKKNSSCFLLGSLTADEDEEGVTLTVDRFDPGREVPECLEITPTASLPGDFLIPCKVHTQELCSREMIVHSVDDFSSALKALQCHICSKDSLDCGKLLSLRVHITSRESLDSVEFDLHWAAVTLANNFKCTPVKPIPIIPTALARNLSSNLNISQVQGTYKYGYLTMDETRKLLLLLESDPKVYSLPLVGIWLSGITHIYSPQVWACCLRYIFNSSVQERVFSESGNFIIVLYSMTHKEPEFYECFPCDGKIPDFRFQLLTSKETLHLFKNVEPPDKNPIRCELSAESQNAETEFFSKASKNFSIKRSSQKLSSGKMPIHDHDSGVEDEDFSPRPIPSPHPVSQKISKIQPSVPELSLVLDGNFIESNPLPTPLEMVNNENPPLINHLEHLKPLQPQLYDEKHSPEVEAGEPSLRGIPNQLNQDKPALLRHCKVRQPPAYKKGNPHTRNSIKPSSHNGPSHDIFEKLQTVSAGNVQNEEYPIRPSTLNSRQSSLAPQSQPHDFVFSPHNSGRPMELQIPTPPLPSYCSTNVCRCCQHHSHIQYSPLNSWQGANTVGSIQDVQSEALQKHSLFHPSGCPALYCNAFCSSSSPIALRPQGDMGSCSPHSNIEPSPVARPPSHMDLCNPQPCTVCMHTPKTESDNGMMGLSPDAYRFLTEQDRQLRLLQAQIQRLLEAQSLMPCSPKTTAVEDTVQAGRQMELVSVEAQSSPGLHMRKGVSIAVSTGASLFWNAAGEDQEPDSQMKQDDTKISSEDMNFSVDINNEVTSLPGSASSLKAVDIPSFEESNIAVEEEFNQPLSVSNSSSLVVRKEPDVPVFFPSGQLAESVSMCLQTGPTGGASNNSETSEEPKIEHVMQPLLHQPSDNQKIYQDLLGQVNHLLNSSSKETEQPSTKAVIISHECTRTQNVYHTKKKTHHSRLVDKDCVLNATLKQLRSLGVKIDSPTKVKKNAHNVDHASVLACISPEAVISGLNCMSFANVGMSGLSPNGVDLSMEANAIALKYLNENQLSQLSVTRSNQNNCDPFSLLHINTDRSTVGLSLISPNNMSFATKKYMKRYGLLQSSDNSEDEEEPPDNADSKSEYLLNQNLRSIPEQLGGQKEPSKNDHEIINCSNCESVGTNADTPVLRNITNEVLQTKAKQQLTEKPAFLVKNLKPSPAVNLRTGKAEFTQHPEKENEGDITIFPESLQPSETLKQMNSMNSVGTFLDVKRLRQLPKLF |  |  | binds | binds
